# Test results from US20260083865A1 (priority 2022, published 2026).
# Legend:
# [1] = general procedure: Fmoc solid-phase peptide synthesis; PS, DEG or ChemMatrix resin with Rink amide, 2-chloro-trityl, 4-methyltrityl or FMPB linker; Sieber amide PS resin for p; conditions: for isolated yield / isolated mass: whole synthesis; for step yield: late stage modification step
# [2] = general procedure: Fmoc solid-phase peptide synthesis; PS resin with 4-methyl trityl linker; conditions: whole synthesis, scale 100 μmol
# [3] = general procedure: Fmoc solid-phase peptide synthesis; DEG Rink amide resin; conditions: whole synthesis
# [4] = general procedure: Fmoc solid-phase peptide synthesis; FMPB PS resin; conditions: whole synthesis, scale 50 μmol, one disulfide bridge
# [5] = general procedure: Fmoc solid-phase peptide synthesis; PS resin with 2-chloro trityl linker; conditions: whole synthesis; for isolated mass / isolated yield: one disulfide bridge
# [6] = general procedure: Fmoc solid-phase peptide synthesis; Sieber amide PS resin; conditions: whole synthesis, scale 50 μmol
# [7] = scale 50 mol, one disulfide bridge
# [8] = scale 50 μmol, one disulfide bridge
substance,measurement,setting,value
AF488Ahx-Ttds-Ttds-Thr-Aib-Phe-[Cys-Lys-Arg-Aib-Asn-Cys]-Tle-Thr-Asp-NH2,conjugation yield,"[1]; conjugation step, one disulfide bridge",41.3%
same,isolated yield,"[1]; overall, scale of the general procedure 25 μmol, 50 μmol or 100 μmol, one disulfide bridge",overall yield 4%
"Ac-Aib-Pcf-Cys-Lys(Me,Boc)-Arg(Pbf)-Aib-Asn(Trt)-Cys-Tle-en",isolated mass,[2],14.52 mg
same,isolated yield,[1]; scale 100 μmol,9.5%
Ac-Aib-Pcf-[Cys-Lys(Dde)-Arg-Aib-Asn-Cys]-Tle-en,isolated mass,[1]; scale 50 μmol,22.27 mg
same,isolated yield,[1]; scale 50 μmol,16.7%
Ac-Aib-Pcf-[Cys-Lys(Me)-Arg-Aib-Asn-Cys]-Tle-en-DOTA,isolated mass,[2]; one disulfide bridge,5.54 mg
same,isolated yield,"[1]; scale 100 μmol, one disulfide bridge",3.5%
Ac-Aib-Pcf-[Cys-Lys-Arg(Ac)-Aib-Asn-Cys]-Tle-Thr-Cmp-lys(DOTA)-NH2,isolated mass,[3]; [7],27.37 mg
same,isolated yield,[3]; [7],28.7%
Ac-Aib-Pcf-[Cys-Lys-Arg-Aib-Asn-Cys]-Tle-en-DOTA,isolated mass,[1]; [8],13.22 mg
same,isolated yield,[1]; [8],8.5%
Ac-Aib-Pcf-[Cys-Lys-Gln(Gu)-Aib-Asn-Cys]-Tle-Thr-Cmp-lys(DOTA)-NH2,isolated mass,[3]; [8],16.83 mg
same,isolated yield,[3]; [8],17.9%
Ac-Thr-Aib-Pcf-[Cys-Lys-Arg(Ac)-Aib-Asn-Cys]-Tle-Thr-NH2,isolated mass,[3]; [8],1.46 mg
same,isolated yield,[3]; [8],2.1%
Ac-Thr-Aib-Pcf-[Cys-Nle-Gln(Gu)-Aib-Asn-Cys]-Tle-Thr-NH2,isolated mass,[3]; [8],9.14 mg
same,isolated yield,[3]; [8],13.8%
Ac-Thr-Aib-Phe-[Cys-Lys-Arg-Aib-Asn-Cys]-Tle-NHBu,isolated mass,[4],1.99 mg
same,isolated yield,[4],3.2%
Ac-Thr-Aib-Phe-[Cys-Lys-Arg-Aib-Asn-Cys]-Tle-OH,isolated mass,[5]; scale 25 μmol,5.06 mg
same,isolated yield,[5]; scale 25 μmol,16.9%
Ac-Thr-Aib-Phe-[Cys-Lys-Arg-Aib-Asn-Cys]-Tle-Thr-Cmp-lys(DOTA)-NH2,isolated mass,[3]; [8],16.95 mg
same,isolated yield,[3]; [8],17.5%
Ac-Thr-Aib-Phe-[Cys-Lys-Arg-Ala-Asn-Cys]-Tle-Thr-Asp-NH2,isolated mass,[3]; [8],11.99 mg
same,isolated yield,[3]; [8],17.2%
Ac-Thr-Aib-Phe-[Smc-Lys-Arg-Ala-Asn-Cys]-Tle-Thr-Asp-NH2,isolated mass,[3]; scale 50 μmol,5.37 mg
same,isolated yield,[3]; scale 50 μmol,7.6%
BiDOTA-Cmp-Thr-Aib-Pcf-[Cys-Lys(Me)-Arg(Me)-Aib-Asn-Cys]-Tle-Thr-NH2,step yield,[1]; one disulfide bridge,81.88%
DOTA(OtBu)3-Cmp-Thr(tBu)-Aib-Pcf-Cys(Trt)-Lys(Boc)-Arg(Pbf)-Aib-Asn(Trt)-Cys(Trt)-Tle-OH,crude mass,[5]; scale 50 μmol,200 mg
DOTA-Cmp-Thr-Aib-Pcf-[Cys-Lys(Me)-RMe2a-Aib-Asn-Cys]-Tle-Thr-NH2,isolated mass,[3]; [8],8.99 mg
same,isolated yield,[3]; [8],9.8%
DOTA-Cmp-Thr-Aib-Pcf-[Cys-Lys-Arg(EtCAyl)-Aib-Asn-Cys]-Tle-Thr-NH2,isolated mass,[3]; [8],7.75 mg
same,isolated yield,[3]; [8],8.3%
DOTA-Cmp-Thr-Aib-Pcf-[Cys-Lys-Arg-Aib-Asn-Cys]-Tle-en(Me),isolated mass,[5]; scale 50 μmol,18.91 mg
same,isolated yield,[1]; [8],21.6%
DOTA-Cmp-Thr-Aib-Pcf-[Cys-Lys-Urr-Aib-Asn-Cys]-Tle-Thr-NH2,isolated mass,[3]; [8],11.5 mg
same,isolated yield,[3]; [8],12.7%
DOTA-Cmp-Thr-Aib-Pcf-[Smc-Lys(Me)-Arg(Me)-Aib-Asn-Cys]-Tle-NH2,isolated mass,[6],6.44 mg
same,isolated yield,[6],7.4%
DOTA-Pamb-Aib-Pcf-[Cys-Lys-Arg-Aib-Asn-Cys]-Tle-en,isolated mass,[5]; scale 50 μmol,22.81 mg
same,isolated yield,[5]; scale 50 μmol,27.7%
EuDOTA-Cmp-Thr-Aib-Pcf-[Cys-Lys-Arg-Aib-Asn-Cys]-Tle-Thr-NH2,step yield,[1]; one disulfide bridge,72.1%
GaDOTA-Ttds-Thr-Aib-Phe-[Cys-Lys-Arg-Ala-Asn-Cys]-Tle-Thr-NH2,step yield,[1]; one disulfide bridge,86%
"H-Cmp-Thr(tBu)-Aib-Pcf-[Cys-Lys(Me,Boc)-Arg(Me,Pbf)-Aib-Asn(Trt)-Cys]-Tle-Thr(tBu)-NH2",isolated mass,[1]; scale 100 μmol,49.66 mg
Hex-Thr-Aib-Pcf-[Cys-Lys-Arg-Aib-Asn-Cys]-Tle-Thr-lys(DOTA-Cmp)-NH2,isolated mass,[3]; [8],13.52 mg
same,isolated yield,[3]; [8],13.4%
InDOTA-Ttds-Thr-Aib-Phe-[Cys-Lys-Arg-Ala-Asn-Cys]-Tle-Thr-Asp-NH2,step yield,[1]; one disulfide bridge,67.3%
LaDOTA-Cmp-Thr-Aib-Pcf-[Cys-Lys(Me)-Arg(Me)-Aib-Asn-Cys]-Tle-Thr-NH2,step yield,[1]; one disulfide bridge,56.08%
LuDOTA-Cmp-Thr-Aib-Phe-[Cys-Lys-Arg-Aib-Asn-Cys]-Tle-Thr-NH2,step yield,[1]; one disulfide bridge,66.9%
Macropa-Cmp-Thr-Aib-Pcf-[Cys-Lys(Me)-Arg(Me)-Aib-Asn-Cys]-Tle-Thr-NH2,isolated yield,"[1]; overall, scale 100 μmol",1.1% overall yield
N3Ahx-Ttds-Ttds-Thr-Aib-Phe-[Cys-Lys-Arg-Aib-Asn-Cys]-Tle-Thr-Asp-NH2,isolated mass,[3]; scale 50 μmol,14.39 mg
same,isolated yield,[1]; scale 50 μmol,9.9%
PbDOTA-Cmp-Thr-Aib-Pcf-[Cys-Lys(Me)-Arg(Me)-Aib-Asn-Cys]-Tle-Thr-NH2,step yield,[1]; one disulfide bridge,78.44%
nBuCAyl-Thr-Aib-Pcf-[Cys-Lys-Cit-Aib-Asn-Cys]-Tle-Thr-lys(DOTA-Cmp)-NH2,isolated mass,[3]; [8],17.42 mg
same,isolated yield,[3]; [8],17.2%
